Source: US7381714B2, “A1 adenosine receptor agonists” (CV Therapeutics, Inc., priority 2005, dated 2008)

Amino acid sequences for entries named in this document (tags omitted). Residues count along the entry.
UniProt A0A1U8BVR4, 1-326: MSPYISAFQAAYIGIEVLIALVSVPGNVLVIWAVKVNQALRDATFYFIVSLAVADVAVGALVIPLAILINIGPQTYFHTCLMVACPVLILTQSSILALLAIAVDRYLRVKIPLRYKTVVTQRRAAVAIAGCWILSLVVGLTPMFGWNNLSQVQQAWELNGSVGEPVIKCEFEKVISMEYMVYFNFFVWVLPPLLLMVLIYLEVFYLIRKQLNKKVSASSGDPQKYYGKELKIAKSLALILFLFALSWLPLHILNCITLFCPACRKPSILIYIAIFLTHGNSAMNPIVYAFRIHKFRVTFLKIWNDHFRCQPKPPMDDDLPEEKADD

Target: A1 adenosine receptor (Mesocricetus auratus, UniProt A0A1U8BVR4)
Experiment: Competitive radioligand binding assay, DDT cell membranes
Conditions: read-out: A1 BINDING AFFINITY Ki; membranes of DDT cells; tritiated radioligand 1.5 nM; 23° C. 90 minutes
Method: DDT cells (hamster vas deferens smooth muscle cell line) were grown as monolayers in petri dishes using Dulbecco's Modified Eagle's Medium (DMEM) containing 2.5 μg mL^−1 amphotericin B, 100 U mL^−1 penicillin G, 0.1 mg mL^−1 streptomycin sulfate and 5% fetal bovine serum in a humidified atmosphere of 95% air and 5% CO2. Cells were subcultured twice weekly by dispersion in Hank's Balanced Salt Solution (HBSS) without the divalent cations and containing 1 mM EDTA. The cells were then seeded in growth medium at a density of 1.2×10^5 cells per plate and experiments were performed 4 days later at approximately one day preconfluence.
Attached cells were washed twice with HBSS (2×10 mL), scraped free of the plate with the aid of a rubber policeman in 5 mL of 50 mM Tris-HCl buffer pH 7.4 at 4° C. and the suspension was homogenized for 10 s. The suspension was then centrifuged at 27,000×g for 10 min. The pellet was resuspended in homogenization buffer by vortexing and centrifuged again as described above. […] The protein content was determined with a BradfordTm Assay Kit using bovine serum albumin as standard.
Compounds of Formula I were assayed by use of competitive radioligand binding methods to determine their affinity for the A1 adenosine receptor sites on the membranes of DDT cells. […] The amount of radioactivity retained on the filters was determined by liquid scintillation spectrometry. […]

How did the Ki turn out when `OC[C@H]1O[C@@H](n2cnc3c(NC4CCCC4)nc(-c4nn[nH]n4)nc32)[C@H](O)[C@@H]1O` was run?
The Ki was 8.25 nM.

The structures given here were assigned with low confidence; some may be wrong.
